Data published in publication PMC3859071.
pKd: −log10 of the molar value. For some of these results: Negatives hold for the conditions tested. For some of these results: At least one verdict rests on a figure or table, not on a statement of the authors. For some of these results: Construct, isoform or probe ends are uncertain for at least one entry. For some of these results: Weaker means in comparison with the reference protein, sequence or condition of that experiment.

Columns and labels:
alpha-thrombin (human) = experiment: binding assay; conditions: EMSA: TBSE (0.05 mM EDTA, 10 mM Tris-HCl, 100 mM NaCl, pH 7; Vap7 folded with +100 mM KCl), 25 C, 30-60 min, 0.1 uM aptamer; commercial protein; folded or branched DNA
VEGF165 (human) [1] = experiment: EMSA supershift; conditions: 5 uM VEGF165, no ternary complex evident (binary complex forms); 5'-amino on strand 1; EMSA: TBSE (0.05 mM EDTA, 10 mM Tris-HCl, 100 mM NaCl, pH 7; Vap7 folded with +100 mM KCl), 25 C, 30-60 min, 0.1 uM aptamer; commercial protein; label: 5'-FAM on strand 2
Alexa555-VEGF165 (human) [2] = experiment: aptamer microarray; conditions: less defined signal than with T12 spacer; 5'-amino; Microarray: TBSE, 25 C, 30 min, PBS washes; commercial protein; protein details: Alexa Fluor 555; folded or branched DNA
VEGF165 (human) [3] = experiment: binding assay; conditions: EMSA: TBSE (0.05 mM EDTA, 10 mM Tris-HCl, 100 mM NaCl, pH 7; Vap7 folded with +100 mM KCl), 25 C, 30-60 min, 0.1 uM aptamer; commercial protein; folded or branched DNA
Alexa555-VEGF165 (human) [4] = experiment: sandwich aptamer microarray; conditions: detected with VEa5-Cy5; 5'-amino; Microarray: TBSE, 25 C, 30 min, PBS washes; commercial protein; protein details: Alexa Fluor 555; single-stranded DNA

Sequence: AGTCCGTGGTAGGGCAGGTTGGGGTGACT [TBA2]
- pKd (alpha-thrombin (human)): 9.30

Sequence: ATACCAGTCTATTCAATTGCACTCTGTGGGGGTGGACGGGCCGGGTAGA / ATACCAGTCTATTCAATTGGGCCCGTCCGTATGGTGGGTGTGCTGGCCAGATAGTATGTGCAATCA [Vap7-NH2 + VEa5-FAM]
- binding result (VEGF165 (human) [1]): no binding

Sequence: ATACCAGTCTATTCAATTGCACTCTGTGGGGGTGGACGGGCCGGGTAGA [Vap7-NH2]
- binding result (Alexa555-VEGF165 (human) [2]): binds more weakly

Sequence: ATACCAGTCTATTCAATTGCACTCTGTGGGGGTGGACGGGCCGGGTAGA [Vap7]
- pKd (VEGF165 (human) [3]): 7.70

Sequence: ATACCAGTCTATTCAATTGGGCCCGTCCGTATGGTGGGTGTGCTGGCCAGATAGTATGTGCAATCA [VEa5]
- pKd (VEGF165 (human) [3]): 6.89

Sequence: GGTTGGTGTGGTTGG [TBA1]
- pKd (alpha-thrombin (human)): 7.59

Sequence: TCACGCTTATTTAAGAAGCTGTTTGGTGGAGG [Random DNA-NH2]
- binding result (Alexa555-VEGF165 (human) [4]): no binding
